Experimental findings from paper PMC12677461 are described below.

Chains of the proteins cited; added tags and fusions are not shown.
UniProt P18872: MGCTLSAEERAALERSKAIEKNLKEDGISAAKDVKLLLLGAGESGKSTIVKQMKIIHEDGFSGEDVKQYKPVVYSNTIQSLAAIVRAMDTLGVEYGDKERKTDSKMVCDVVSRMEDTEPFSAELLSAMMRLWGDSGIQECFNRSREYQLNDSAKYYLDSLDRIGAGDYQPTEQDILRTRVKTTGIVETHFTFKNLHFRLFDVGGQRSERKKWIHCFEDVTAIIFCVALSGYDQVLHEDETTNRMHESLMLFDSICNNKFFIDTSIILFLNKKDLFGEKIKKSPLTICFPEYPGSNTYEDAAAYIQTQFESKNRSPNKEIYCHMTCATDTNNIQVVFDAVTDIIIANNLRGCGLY

In this assay the target is Gαo, alpha subunit of the heterotrimeric G protein Go (native, mouse brain) (mouse (endogenous in BALB/c mouse brain)) (UniProt P18872). The experiment in a line: affinity purification with mass spectrometry; anti-Gαo (sc-13532) immunoprecipitate from mouse brain lysate with 100 µM GTPγS; in-gel trypsin digest, LC-MS/MS, Mascot/Scaffold.

These are yes or no findings as the source states them, for the method shown. In cells and extracts the contact can be indirect. Here binding means that the protein was enriched with, or labelled near, the bait; the list need not be complete.

B1: GPRIN-1 (G protein-regulated inducer of neurite outgrowth 1) (protein, UniProt Q3UNH4 1-932)
chain: MRDCCSSPKAIPAPPRHALDQSLGMDPRHTSSSGAAEGASCSERPAGSLACPSPNCSPLPETPRAHGALTSDNSGTTLFGKPEPMSSAEATPTASEIRNPVFSGKMDGNSLKQADSTSTRKEEAGSLRNEESMLKGKAEPMIYGKGEPGTVGRVDCTASGAENSGSLGKVDMPCSSKVDIVSPGGDNAGSLRKVETISSGKMDPKTENVMHSRRERPGSTGEGDLVSLRENDMKPPDNTDSASTKKTDPEFSGKLTPGSSGKTELVSSVTVAPVTSENVNPVCSGGAGPAAVGNSETLSSVKKDPQLLGKKEAVSSGEGGSVSVRMAETVSARQPEGMFPAKTDSTSSNSTGPSGRADPVSLRNSELVSPVKPERLSSGQAERVSLVKTETLSSGKEDPRSSRRVDHTTVTGNMQTSQKGNPESSGKTDLGSSSSGDTRSLGTWGSLSAAKAEVTEGKGDPQPWKKASLPASEKTDPLASSKAGSASQGKAETVSPGEVDAMTLGKTVPTSSGKTALVSPGKVDLMTSERAEGIPELQASEKGNPVNSTRVDTGATGSTEPKSGVKVITQIPGATSPGKVETPSLQKEQPQLSEKTDPSRKVDPPTTVEPVSLGKADSASPSPRKAESQTSAKTVPQAPDKATSSLRQSDGTPYSSAQPQRDTRSIGSLPEREPSASTSQKDLAAAAAQKSPSAEAAAPPPGPRTRDNFTKAPSWDAGAPPPREDAGTQAGAQACVSVAVSPMSPQDGAGGPAFSFQAAPRAPSPAPRPPSRRDAGLQVSLGAAETRSVATGPMTPQAAAPPAVPPVFPEVRVRPGSVLAAALAPQEATEPVRDVSWDEKGMTWEVYGASMEVEVLGMAIQKHLERQIEEHGRQGAPAPAPPPAVRAGPGRAGSVRTAPAEGAAKRPPGLFRALLQSVRRPRCCSRAGPTAE
On to B1, for which the binding result is on record as “binds”.
